These results are taken from the supplement of paper PMC4635364.

Assay [1] relates to ReNCell VM. Description: neuronal differentiation score (DCX+ cell fraction vs untreated, manual image score) (score (-3 to 3)); higher = more neuronal differentiation. Conditions: 2 uM, 2 weeks.
In assay [2] the test system is ReNCell VM. The experiment in a line: dopaminergic neuron differentiation score (TH+ cell fraction vs untreated, manual image score) (score (0 to 3)); higher = more TH+ dopaminergic neuron differentiation. As to conditions: 2 uM, 4 weeks, BDNF 10 ng/ml + GDNF 10 ng/ml.

Counter-ions that a name gives are not always drawn. This is one part of the list. Single values are uncertain here, since repeats match poorly.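 Human fetal ventral-midbrain neural progenitor line ReNCell VM, differentiated without mitogens. Images stained for doublecortin (early neurons) or tyrosine hydroxylase (dopaminergic neurons) were scored by blinded raters against untreated wells (0 = no change). Repeats and both raters were averaged, and compounds averaging 2 or higher were picked as hits for retesting.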 Where a SMILES comes first, the peptide text is derived from it. Bridges are numbered along the chain shown (N, C = ends). [ ]: non-standard residue; d: D form. The star is where a group is joined. Ileψ(thiazoline)Cys = CC[C@H](C)[C@H](N)C1=N[C@H](C(=O)*)CS1; dOrn = NCCC[C@@H](N)C(=O)O

With `N[C@@H]1CONC1=O` [D-cycloserine], the neuronal differentiation score in assay [1] (library: Prestwick) is inactive: 0. Further, the “dopaminergic neuron differentiation score” value in assay [2] (library: Prestwick) was inactive: 0.
`Cc1cc(NC(=O)C2=C(O)c3ccccc3S(=O)(=O)N2C)no1` [Isoxicam]: the neuronal differentiation score in assay [1] (library: Prestwick) is inactive: 0. The “dopaminergic neuron differentiation score” value in assay [2] (library: Prestwick) was inactive: 0.
On to `O=C1O/C(=C/Br)CCC1c1cccc2ccccc12` (stereo not drawn) [Bromoenol lactone], for which, in assay [1] (library: LOPAC), the neuronal differentiation score was inactive: 0. Further, the “dopaminergic neuron differentiation score” value in assay [2] (library: LOPAC) is inactive: 0.
In the case of `COc1ccc(-c2cc(C(F)F)nn2-c2ccc(S(N)(=O)=O)cc2)cc1F`, the neuronal differentiation score in assay [1] (library: Spectrum) is inactive: -1. In addition, the “dopaminergic neuron differentiation score” value in assay [2] (library: Spectrum) was inactive: 0.
Consider `CC(=O)OCC(=O)[C@@]1(O)CC[C@H]2[C@@H]3CCC4=CC(=O)C=C[C@]4(C)[C@H]3[C@@H](O)C[C@@]21C`, for which, in assay [1] (library: Spectrum), the neuronal differentiation score was inactive: 0. The “dopaminergic neuron differentiation score” value in assay [2] (library: Spectrum) was inactive: 0.
Regarding `CN1C(C)(C)CCCC1(C)C` [Pempidine tartrate], in assay [1] (library: Prestwick), the neuronal differentiation score was inactive: 0. Also, in assay [2] (library: Prestwick), the “dopaminergic neuron differentiation score” value is inactive: 0.
Regarding `NNCCc1ccccc1`, the neuronal differentiation score in assay [1] (library: Spectrum) is inactive: 0. Besides, in assay [2] (library: Spectrum), the “dopaminergic neuron differentiation score” value was inactive: 1.
For `Cc1cccc(Nc2ccccc2C(=O)O)c1C` the same measures were inactive: 0 and inactive: 0.
For `COc1ccc(C(=O)O)c(O)c1OC` the same measures were inactive: 0 and inactive: 0.
`COc1ccc(C(=CC(=O)O)c2nccc3cc(OC)c(OC)cc23)cc1OC`: the neuronal differentiation score in assay [1] (library: Natural) was inactive: 0. Besides, the “dopaminergic neuron differentiation score” value in assay [2] (library: Natural) is inactive: 0.
Regarding `COc1c(-c2ccccc2)oc2c(ccc3occc32)c1=O` [karanjin], the neuronal differentiation score in assay [1] (library: Natural) was inactive: 0. Further, in assay [2] (library: Natural), the “dopaminergic neuron differentiation score” value was inactive: 0.
Consider `Cc1coc2c1C(=O)C(=O)c1c-2ccc2c1CCCC2(C)C`, for which the neuronal differentiation score in assay [1] (library: Spectrum) was inactive: 0. For the same compound, the “dopaminergic neuron differentiation score” value in assay [2] (library: Spectrum) was inactive: 0.
On to `CCC(=O)OCC(=O)[C@@]1(OC(=O)CC)[C@H](C)C[C@H]2[C@H]3[C@H]([C@@H](O)C[C@@]21C)[C@@]1(C)C=CC(=O)C=C1C[C@H]3Cl` [Alclometasone dipropionate], for which the neuronal differentiation score in assay [1] (library: Prestwick) was inactive: 0. In assay [2] (library: Prestwick), the “dopaminergic neuron differentiation score” value is inactive: 0.
For the compound `NNC(=O)c1ccncc1` [Isoniazid], the neuronal differentiation score in assay [1] (library: Prestwick) is inactive: 0. The “dopaminergic neuron differentiation score” value in assay [2] (library: Prestwick) was inactive: 0.
`Clc1ccc(CCC(Cn2ccnc2)Sc2c(Cl)cccc2Cl)cc1` (stereo not drawn) [Butoconazole nitrate]: in assay [1] (library: Prestwick), the neuronal differentiation score is inactive: 0. Besides, the “dopaminergic neuron differentiation score” value in assay [2] (library: Prestwick) is inactive: 0.
`CCCC[C@@H](C=O)NC(=O)[C@H](CC(C)C)NC(=O)OCc1ccccc1` [Calpeptin]: the neuronal differentiation score in assay [1] (library: Tocriscreen) was inactive: 0. Moreover, in assay [2] (library: Tocriscreen), the “dopaminergic neuron differentiation score” value is inactive: 0.
As for `C[N+]1(C)CCCC1C(=O)O` (stereo not drawn) [Stachydrine hydrochloride], the neuronal differentiation score in assay [1] (library: Phytochemical) was inactive: 0. Moreover, the “dopaminergic neuron differentiation score” value in assay [2] (library: Phytochemical) is inactive: 0.
With `COc1ccccc1CNCCCCCCNCCCCCCCCNCCCCCCNCc1ccccc1OC` [Methoctramine tetrahydrochloride], the neuronal differentiation score in assay [1] (library: LOPAC) is inactive: 0. Further, the “dopaminergic neuron differentiation score” value in assay [2] (library: LOPAC) was inactive: 0.
Turning to `COc1ccc2cc(CCC(C)=O)ccc2c1` [Nabumetone], in assay [1] (library: Prestwick), the neuronal differentiation score was inactive: 0. The “dopaminergic neuron differentiation score” value in assay [2] (library: Prestwick) was inactive: 0.
With `NC(=O)C(c1ccccc1)(c1ccccc1)[C@@H]1CCN(CCc2ccc3c(c2)CCO3)C1` [Darifenacin hydrobromide], the neuronal differentiation score in assay [1] (library: Prestwick) is inactive: 0. Besides, the “dopaminergic neuron differentiation score” value in assay [2] (library: Prestwick) was inactive: 0.
Take `Nc1nc2c(ncn2COC(CO)CO)c(=O)[nH]1`: the neuronal differentiation score in assay [1] (library: Spectrum) is inactive: 0. Moreover, the “dopaminergic neuron differentiation score” value in assay [2] (library: Spectrum) is inactive: 0.
In the case of `O=C(O)c1cc(/N=N/c2ccc(S(=O)(=O)Nc3ccccn3)cc2)ccc1O`, the neuronal differentiation score in assay [1] (library: Spectrum) was inactive: 0. The “dopaminergic neuron differentiation score” value in assay [2] (library: Spectrum) was inactive: 1.
Consider `C=C1/C(=C\C=C2/CCC[C@]3(C)[C@@H]([C@H](C)/C=C/[C@@H](O)C4CC4)CC[C@@H]23)C[C@@H](O)C[C@@H]1O` [Calcipotriol], for which the neuronal differentiation score in assay [1] (library: Tocriscreen) is inactive: 0. Further, the “dopaminergic neuron differentiation score” value in assay [2] (library: Tocriscreen) is inactive: 0.
With `C[C@H]1C[C@@H]2[C@H]([C@@H](O)C[C@@]3(C)[C@H]2CC[C@]3(O)C(=O)CO)[C@@]2(C)C=CC(=O)C=C12`, the neuronal differentiation score in assay [1] (library: Spectrum) was inactive: 0. In assay [2] (library: Spectrum), the “dopaminergic neuron differentiation score” value is inactive: 0.
`C[C@@H]1NC(=O)NC1=O` [Methylhydantoin-5-(L)]: in assay [1] (library: Prestwick), the neuronal differentiation score was inactive: 0. Moreover, the “dopaminergic neuron differentiation score” value in assay [2] (library: Prestwick) is inactive: 0.
For `CC[C@H](C)[C@H](N)C1=N[C@H](C(=O)N[C@@H](CC(C)C)C(=O)N[C@H](CCC(=O)O)C(=O)N[C@H](C(=O)N[C@H]2CCCCNC(=O)[C@H](CC(N)=O)NC(=O)[C@@H](CC(=O)O)NC(=O)[C@H](Cc3cnc[nH]3)NC(=O)[C@@H](Cc3ccccc3)NC(=O)[C@H]([C@@H](C)CC)NC(=O)[C@@H](CCCN)NC2=O)[C@@H](C)CC)CS1` ({Ileψ(thiazoline)Cys}-L[dE]IK[dOrn]I[dF]H[dD]N; lactam 4-C), the neuronal differentiation score in assay [1] (library: Spectrum) is inactive: 0. The “dopaminergic neuron differentiation score” value in assay [2] (library: Spectrum) was inactive: 0.
Take `Nc1nc(=O)c2c([nH]1)NCC(CNc1ccc(C(=O)N[C@@H](CCC(=O)O)C(=O)O)cc1)N2C=O` (stereo partly drawn): the neuronal differentiation score in assay [1] (library: Spectrum) was inactive: 0. The “dopaminergic neuron differentiation score” value in assay [2] (library: Spectrum) is inactive: 0.
For the compound `O=C(N[C@H](CO)[C@H](O)c1ccc([N+](=O)[O-])cc1)C(Cl)Cl` [Chloramphenicol], the neuronal differentiation score in assay [1] (library: Prestwick) is inactive: 0. Besides, in assay [2] (library: Prestwick), the “dopaminergic neuron differentiation score” value is inactive: 0.
In the case of `O=[N+]([O-])c1cc(Cl)ccc1S(=O)(=O)N1CCN(Cc2ccccc2)CC1`, the neuronal differentiation score in assay [1] (library: Tocriscreen) was inactive: 0. For the same compound, the “dopaminergic neuron differentiation score” value in assay [2] (library: Tocriscreen) was inactive: 1.
Consider `COc1ccc(S(=O)(=O)N2c3ccc(Cl)cc3[C@](O)(c3ccccc3Cl)[C@@H]2C(=O)N2CCC[C@H]2C(N)=O)cc1OC`, for which the neuronal differentiation score in assay [1] (library: Tocriscreen) is inactive: 0. Also, the “dopaminergic neuron differentiation score” value in assay [2] (library: Tocriscreen) was inactive: 0.
Regarding `O=C(CCCl)NCc1ccccc1`, the neuronal differentiation score in assay [1] (library: Spectrum) is inactive: 0. In assay [2] (library: Spectrum), the “dopaminergic neuron differentiation score” value was inactive: 0.
For the compound `CN(N=O)C(=O)N[C@H]1C(O)O[C@H](CO)[C@@H](O)[C@@H]1O` (mixture of isomers), the neuronal differentiation score in assay [1] (library: Spectrum) was inactive: 1. In addition, the “dopaminergic neuron differentiation score” value in assay [2] (library: Spectrum) is inactive: 0.
`CCOC(=O)[C@H](CCc1ccccc1)N[C@@H](C)C(=O)N1[C@H](C(=O)O)C[C@H]2CCCC[C@@H]21`: the neuronal differentiation score in assay [1] (library: Spectrum) was inactive: 1. For the same compound, the “dopaminergic neuron differentiation score” value in assay [2] (library: Spectrum) is inactive: 1.
With `N=c1ccn2c(n1)OC[C@H]1[C@H](O)[C@H](O)O[C@H]12`, the neuronal differentiation score in assay [1] (library: Natural) was inactive: 0. Also, the “dopaminergic neuron differentiation score” value in assay [2] (library: Natural) was inactive: 0.
